For one molecule, binding results are on record in publication PMC9574752.

In this experiment the target is T1, FLAG-OTUD6B isoform 1 (IF1) (UniProt Q8N6M0).
T1 sequence: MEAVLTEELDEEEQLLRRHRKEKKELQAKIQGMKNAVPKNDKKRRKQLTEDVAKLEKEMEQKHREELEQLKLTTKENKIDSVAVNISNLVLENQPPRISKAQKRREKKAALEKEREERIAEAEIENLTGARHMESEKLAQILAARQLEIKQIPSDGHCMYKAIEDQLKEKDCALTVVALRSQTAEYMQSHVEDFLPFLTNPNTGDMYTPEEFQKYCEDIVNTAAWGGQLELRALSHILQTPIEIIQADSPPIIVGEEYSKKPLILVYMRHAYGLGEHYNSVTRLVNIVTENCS
The experiment can be described thus: co-IP; FLAG-tagged proteins expressed in HEK293T; whole cell extract (150 mM NaCl, 50 mM Tris-HCl pH 7.5, 5 mM MgCl2, 1 mM EDTA, 0.1% NP-40, 5% glycerol) on FLAG-M2 agarose at 4°C for 1.5-2 h; immunoblot. (Immunoblotting shows a protein as a band on a membrane.)

These are yes or no findings as the source states them, for the method shown. In cells and extracts the contact can be indirect. Some binding calls cover weakened binding; strength is not graded here. Sequences can lack the tags named with a protein.

B1: LIN28B, endogenous in HEK293T cells (protein, UniProt Q6ZN17 1-250)
chain: MAEGGASKGGGEEPGKLPEPAEEESQVLRGTGHCKWFNVRMGFGFISMINREGSPLDIPVDVFVHQSKLFMEGFRSLKEGEPVEFTFKKSSKGLESIRVTGPGGSPCLGSERRPKGKTLQKRKPKGDRCYNCGGLDHHAKECSLPPQPKKCHYCQSIMHMVANCPHKNVAQPPASSQGRQEAESQPCTSTLPREVGGGHGCTSPPFPQEARAEISERSGRSPQEASSTKSSIAPEEQSKKGPSVQKRKKT
On to B1, for which the binding result is recorded as “binds”.
